Test results from patent US20120251571, “RNASE L-MEDIATED CLEAVAGE PRODUCTS AND USES […]” (The Cleveland Clinic Foundation, published 2012).

Biological target: T1, Flag-RIG-I (Homo sapiens) (UniProt O95786)
T1 sequence (looked up, limits assumed): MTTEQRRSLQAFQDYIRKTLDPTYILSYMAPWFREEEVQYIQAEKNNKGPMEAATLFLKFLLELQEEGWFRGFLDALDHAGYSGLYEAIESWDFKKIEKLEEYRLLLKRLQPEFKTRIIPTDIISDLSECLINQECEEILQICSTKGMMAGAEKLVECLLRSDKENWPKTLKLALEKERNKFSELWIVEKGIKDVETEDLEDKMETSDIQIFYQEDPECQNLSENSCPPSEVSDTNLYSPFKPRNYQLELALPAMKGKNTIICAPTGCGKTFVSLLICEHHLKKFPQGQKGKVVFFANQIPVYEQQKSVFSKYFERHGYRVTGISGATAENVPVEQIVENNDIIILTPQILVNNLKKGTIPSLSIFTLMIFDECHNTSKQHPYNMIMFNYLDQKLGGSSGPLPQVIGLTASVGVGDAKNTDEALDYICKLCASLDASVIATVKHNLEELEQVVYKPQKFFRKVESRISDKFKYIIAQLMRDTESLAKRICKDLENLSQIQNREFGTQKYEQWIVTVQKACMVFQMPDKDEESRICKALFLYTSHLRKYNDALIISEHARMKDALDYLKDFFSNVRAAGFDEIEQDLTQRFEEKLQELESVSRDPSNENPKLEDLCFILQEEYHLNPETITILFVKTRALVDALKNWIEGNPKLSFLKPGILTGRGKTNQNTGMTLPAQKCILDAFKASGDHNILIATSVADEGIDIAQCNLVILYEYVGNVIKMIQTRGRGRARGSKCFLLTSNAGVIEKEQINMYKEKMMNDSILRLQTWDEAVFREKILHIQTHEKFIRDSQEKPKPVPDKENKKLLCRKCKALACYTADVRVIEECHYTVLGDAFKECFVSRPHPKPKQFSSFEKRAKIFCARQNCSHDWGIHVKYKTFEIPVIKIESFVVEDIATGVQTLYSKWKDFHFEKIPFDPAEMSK
Experiment: pull-down
Conditions: 3'-phosphate or 5'-triphosphate; one clone; purified recombinant protein; protein details: FLAG, from 293T cells

“UGGGUGUGCGCGCGACGAGGAAGACUUCCGAGCGGUCGCAACCUCGAGGUAGACGUCAGCCUAUC [svRNA4]”: binds.

For at least one entry, the source does not settle the construct or the ends of the probe. Where a protein sequence is shown, tags need not be part of it.
